For some of these results: A negative result means that nothing was seen under these conditions. For some of these results: At least one verdict was read from the data and is not stated in words by the source. For some of these results: The exact form of at least one protein or probe is not confirmed. For some of these results: Where a protein sequence is shown, tags need not be part of it. For some of these results: At least one result comes from cells or an extract, where the contact may be indirect.

Data set [1] has as its target T1, HMGB1 (UniProt P63158).
T1 sequence (looked up, limits assumed): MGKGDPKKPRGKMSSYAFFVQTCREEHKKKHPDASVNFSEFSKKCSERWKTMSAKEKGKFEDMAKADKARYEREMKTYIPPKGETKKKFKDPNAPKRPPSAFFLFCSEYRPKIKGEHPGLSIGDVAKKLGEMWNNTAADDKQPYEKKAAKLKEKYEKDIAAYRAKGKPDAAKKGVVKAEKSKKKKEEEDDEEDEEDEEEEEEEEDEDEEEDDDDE
Put plainly: SPR. The following applies: HMGB1 immobilized on CM5 chip, DNA 0-10 uM; phosphorothioate throughout; 5' C6 amino linker; SPR: Biacore T200, CM5 chip with immobilized HMGB1, buffer not stated; recombinant protein; single-stranded …. A general note: In SPR one partner is held on a chip, and binding of the other changes the refractive index at the surface.

The target of data set [2] is T1, HMGB1. Put plainly: pull-down. The following applies: Bead pull-down: PBS (pH 7), room temperature, 1-2 h, western blot, recombinant protein. (In general: Immunoblotting shows a protein as a band on a membrane.)
In data set [3] the target is T2, HMGB1 from LPS-stimulated RAW 264.7 supernatant (UniProt P63158).
T2 sequence (looked up, limits assumed): T1 sequence (looked up, limits assumed)
Put plainly: pull-down. The following applies: Bead pull-down: PBS (pH 7), room temperature, 1-2 h, western blot, protein in an extract.

In data set [4] the target is HMGB1 from colitis mouse feces (Mus musculus) (UniProt P63158). Put plainly: pull-down. The following applies: fecal extract; phosphorothioate throughout; 5' C6 amino linker; Bead pull-down: PBS (pH 7), room temperature, 1-2 h, western blot; protein in an extract; single-stranded DNA.
Data set [5] relates to HMGB1, redox-modified forms (H2O2 or DTT treated). Put plainly: pull-down. The following applies: three redox forms; phosphorothioate throughout; 5' C6 amino linker; Bead pull-down: PBS (pH 7), room temperature, 1-2 h, western blot; recombinant protein; single-stranded DNA.
Data set [6] relates to Histone H3 (Homo sapiens). Put plainly: pull-down. The conditions noted are these: 0-3 ug H3, 5 ul beads; phosphorothioate throughout; 5' C6 amino linker; Bead pull-down: PBS (pH 7), room temperature, 1-2 h, western blot; commercial protein; single-stranded DNA.
The target in data set [7] is TNF (Homo sapiens) (UniProt P01375). Put plainly: pull-down. The conditions noted are these: phosphorothioate throughout, 5' C6 amino linker, Bead pull-down: PBS (pH 7), room temperature, 1-2 h, western blot, commercial protein, single-stranded DNA.
For data set [8], the target named is T3, HMGB1 from septic (CLP) mouse serum (Mus musculus) (UniProt P63158).
T3 sequence (looked up, limits assumed): T1 sequence (looked up, limits assumed)
The data set can be described thus: pull-down. The conditions noted are these: serum; phosphorothioate throughout; 5' C6 amino linker; Bead pull-down: PBS (pH 7), room temperature, 1-2 h, western blot; protein in an extract; single-stranded DNA.

[9] abbreviates: DNA on sepharose beads, >90% of HMGB1 captured, phosphorothioate throughout, 5' C6 amino linker, single-stranded DNA.
[10] abbreviates: pH 1 or 2 (HCl), phosphorothioate throughout, 5' C6 amino linker, single-stranded DNA.
Where [11] appears, read: 10x concentrated supernatant, phosphorothioate throughout, 5' C6 amino linker, single-stranded DNA.

By Kd is commonly meant the free concentration of one partner at which half of the binding sites on the other are occupied at equilibrium, for simple one-to-one binding. As for “AGCATGAGGTTCCTGATGCT [S1 (12-20.1; B1 beads)]”, the Kd in data set [1] worked out at 5 nM. Moreover, the binding result in data set [2] (setting [9]) is recorded as “binds”; in data set [2] (setting [10]), “binds”; in data set [3] (setting [11]) it was “binds”; in data set [4] it was “binds”; in data set [5], “binds”; in data set [6], “no binding”. The binding result in data set [7] is “no binding”.
As to “CCCTATAACCCCTGCATTGAATTCCAGTCTGATAA / GTAGTCGTGATAGGTGCAGGGGTTATAGGG / AACAGTAGCTCTTATTCGAGCTCGCGCCCTATCACGACTA / TTTATCAGACTGGAATTCAAGCGCGAGCTCGAATAAGAGCTACTGT [S3 (12-4WJ.1; B3 beads)]”, the binding result in data set [2] (DNA on sepharose beads, >90% of HMGB1 captured, phosphodiester, 5' C6 amino linker on strand 1, folded or branched DNA) is on record as “binds”; in data set [2] (pH 1 or 2 (HCl), binding capacity not retained, phosphodiester, 5' C6 amino linker on strand 1, folded or branched DNA) it was “no binding”; in data set [3] (cell supernatant, phosphodiester, 5' C6 amino linker on strand 1, folded or branched …), “no binding”.
Take “CTTGCATTGAAATTTCTTTCC / GGAAAGAAACAATGCAAG [S4 (12-DP.1; B4 beads)]”: the binding result in data set [2] (DNA on sepharose beads, phosphodiester, 5' C6 amino linker on strand 1) is “no binding”.
Regarding “TGGATGAGCTTCCTGATGTC [S2 (12-20.2; B2 beads)]”, the Kd in data set [1] was determined as 5 nM. In addition, the binding result in data set [2] (setting [9]) is “binds”; in data set [2] (beads pre-exposed to DNase I 40 ng/ml, phosphorothioate throughout, 5' C6 amino linker, single-stranded DNA), “binds”; in data set [2] (setting [10]) it was “binds”; in data set [3] (setting [11]), “binds”; in data set [4] it was “binds”; in data set [8] it was “binds”. In addition, the results for the binding result in data set [5], in data set [6] and in data set [7] (200 ng TNF) were “binds”, “no binding” and “no binding”, respectively.
